Results on three substances are retold here after paper doi:10.1101/2022.04.26.489478.

Numbering of substitutions follows the chain as printed. No constants are given. Whether binding was seen depends on the method and setting. For some of these results: A result given as binding can be weak or reduced; the word gives no strength. Sequences can lack the tags named with a protein. For some of these results: In cells and extracts the contact can be indirect.

The target of assay [1] is T1, GST-ATG8A (Arabidopsis thaliana) (UniProt Q8LEM4).
T1 sequence: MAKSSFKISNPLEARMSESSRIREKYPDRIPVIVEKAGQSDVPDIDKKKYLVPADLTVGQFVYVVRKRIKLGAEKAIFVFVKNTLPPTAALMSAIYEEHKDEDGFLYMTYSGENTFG
Kind of assay: pull-down.

Assay [2] deals with T2, GST-ATG8^LDS (Arabidopsis thaliana) (UniProt Q8LEM4).
T2 sequence: T1 sequence with Y50A, L51A
Put plainly: pull-down.

The target in assay [3] is T1, GST-ATG8A (Arabidopsis thaliana). Put plainly: microscopy-based on-bead protein-protein interaction assay.

For MBP-AtC53 (Arabidopsis thaliana), the binding result was “binds” in assay [1] and “no binding” in assay [2].

Take PfC53 (Piromyces finnis): in assay [1], the binding entry is given as “binds”.

Consider “mCherry tagged AtC53 (Arabidopsis thaliana)”, for which the binding result in assay [3] is recorded as “binds”.
